From article PMC10405852
No constants are given. Whether binding was seen depends on the method and setting. Binding seen in cells or lysates may run through a third protein. A result given as binding can be weak or reduced; the word gives no strength.

Assays:
[1] = target: GPX4 wild type, stably overexpressed in HepG2 cells (HepG2-GPX4); assay: co-IP; IP from HepG2 cells stably expressing GPX4 WT, S2A, S40A, S45A or S112A; precipitating antibody not given
[2] = target: GPX4 wild type, stably overexpressed in HepG2 cells (HepG2-GPX4); assay: proximity ligation; Duolink in situ PLA on fixed, permeabilised HCC cells or HepG2 cells stably expressing GPX4 WT or mutants; anti-p53 or anti-B55β with anti-GPX4; cells untreated or treated with Sora (10 µM, 24 h)

B1: protein phosphatase 2A-B55β subunit (PP2A-B55β), endogenous in HCC cells (protein, UniProt Q00005 1-443)
chain: MEEDIDTRKINNSFLRDHSYATEADIISTVEFNHTGELLATGDKGGRVVIFQREQESKNQVHRRGEYNVYSTFQSHEPEFDYLKSLEIEEKINKIRWLPQQNAAYFLLSTNDKTVKLWKVSERDKRPEGYNLKDEEGRLRDPATITTLRVPVLRPMDLMVEATPRRVFANAHTYHINSISVNSDYETYMSADDLRINLWNFEITNQSFNIVDIKPANMEELTEVITAAEFHPHHCNTFVYSSSKGTIRLCDMRASALCDRHTKFFEEPEDPSNRSFFSEIISSISDVKFSHSGRYIMTRDYLTVKVWDLNMENRPIETYQVHDYLRSKLCSLYENDCIFDKFECVWNGSDSVIMTGSYNNFFRMFDRNTKRDVTLEASRENSKPRAILKPRKVCVGGKRRKDEISVDSLDFSKKILHTAWHPSENIIAVAATNNLYIFQDKVN
B1 was tested, and the binding [1] was “binds” and the binding [2] was “binds”.
